According to the supplement of paper PMC10849652:
The list shows a part of the results.

Protein sequences, listed by entry. Tags and fused reporters are not part of them. Lines headed by an entry give the natural chain unless they say otherwise; changes in a name come on top.
UniProt Q8N8Q8: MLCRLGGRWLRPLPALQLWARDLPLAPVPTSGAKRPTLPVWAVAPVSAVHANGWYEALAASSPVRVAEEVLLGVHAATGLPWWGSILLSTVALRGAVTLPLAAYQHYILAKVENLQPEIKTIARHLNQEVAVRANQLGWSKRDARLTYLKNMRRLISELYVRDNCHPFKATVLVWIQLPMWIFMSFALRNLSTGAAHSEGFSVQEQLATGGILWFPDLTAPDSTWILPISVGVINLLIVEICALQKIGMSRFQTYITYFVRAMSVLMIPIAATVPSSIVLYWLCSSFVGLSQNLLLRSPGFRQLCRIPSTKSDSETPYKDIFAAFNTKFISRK
UniProt Q8IWV2: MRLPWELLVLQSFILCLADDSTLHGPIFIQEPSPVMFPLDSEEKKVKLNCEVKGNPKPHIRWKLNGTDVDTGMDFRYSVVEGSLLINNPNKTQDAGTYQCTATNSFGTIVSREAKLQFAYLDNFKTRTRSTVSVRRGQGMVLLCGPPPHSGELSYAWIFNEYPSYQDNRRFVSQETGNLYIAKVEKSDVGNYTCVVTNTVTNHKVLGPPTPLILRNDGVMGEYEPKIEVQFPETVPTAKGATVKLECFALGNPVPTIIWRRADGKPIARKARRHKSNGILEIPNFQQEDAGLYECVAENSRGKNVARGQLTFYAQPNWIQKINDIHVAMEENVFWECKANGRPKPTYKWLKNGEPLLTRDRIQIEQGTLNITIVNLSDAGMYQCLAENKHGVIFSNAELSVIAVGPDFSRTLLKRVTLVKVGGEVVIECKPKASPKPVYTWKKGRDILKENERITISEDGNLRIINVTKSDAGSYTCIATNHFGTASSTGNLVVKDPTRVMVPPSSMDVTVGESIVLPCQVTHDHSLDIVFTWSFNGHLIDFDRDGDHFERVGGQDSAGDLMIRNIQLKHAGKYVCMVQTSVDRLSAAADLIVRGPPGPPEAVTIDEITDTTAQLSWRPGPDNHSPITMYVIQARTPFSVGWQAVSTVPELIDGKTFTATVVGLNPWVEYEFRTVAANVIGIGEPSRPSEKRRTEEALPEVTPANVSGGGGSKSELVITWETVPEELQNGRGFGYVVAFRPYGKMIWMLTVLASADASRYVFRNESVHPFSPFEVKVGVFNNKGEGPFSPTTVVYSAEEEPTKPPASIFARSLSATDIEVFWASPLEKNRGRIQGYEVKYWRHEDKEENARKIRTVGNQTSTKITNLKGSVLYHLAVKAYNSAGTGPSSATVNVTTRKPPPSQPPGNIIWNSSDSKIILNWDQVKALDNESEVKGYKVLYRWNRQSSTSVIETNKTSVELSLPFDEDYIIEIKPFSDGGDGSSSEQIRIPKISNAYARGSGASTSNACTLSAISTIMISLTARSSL
UniProt P10606, whole entry, looked up: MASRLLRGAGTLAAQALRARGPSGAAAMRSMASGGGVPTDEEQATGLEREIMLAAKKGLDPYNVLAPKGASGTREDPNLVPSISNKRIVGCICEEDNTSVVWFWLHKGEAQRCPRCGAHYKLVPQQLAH
UniProt Q5HYK3: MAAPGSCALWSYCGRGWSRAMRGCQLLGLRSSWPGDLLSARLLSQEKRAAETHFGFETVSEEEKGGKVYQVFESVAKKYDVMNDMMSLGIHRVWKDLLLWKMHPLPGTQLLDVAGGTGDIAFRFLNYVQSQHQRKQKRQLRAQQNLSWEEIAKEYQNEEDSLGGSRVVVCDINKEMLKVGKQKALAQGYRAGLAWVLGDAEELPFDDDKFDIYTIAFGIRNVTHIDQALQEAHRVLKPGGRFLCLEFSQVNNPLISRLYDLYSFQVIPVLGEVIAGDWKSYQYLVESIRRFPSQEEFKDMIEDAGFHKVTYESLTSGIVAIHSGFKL
UniProt Q99627: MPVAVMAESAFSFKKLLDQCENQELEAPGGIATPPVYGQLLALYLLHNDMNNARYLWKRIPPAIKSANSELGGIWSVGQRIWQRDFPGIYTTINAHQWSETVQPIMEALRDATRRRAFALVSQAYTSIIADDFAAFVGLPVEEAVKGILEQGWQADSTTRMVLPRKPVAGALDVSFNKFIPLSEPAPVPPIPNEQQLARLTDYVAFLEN
UniProt Q99829: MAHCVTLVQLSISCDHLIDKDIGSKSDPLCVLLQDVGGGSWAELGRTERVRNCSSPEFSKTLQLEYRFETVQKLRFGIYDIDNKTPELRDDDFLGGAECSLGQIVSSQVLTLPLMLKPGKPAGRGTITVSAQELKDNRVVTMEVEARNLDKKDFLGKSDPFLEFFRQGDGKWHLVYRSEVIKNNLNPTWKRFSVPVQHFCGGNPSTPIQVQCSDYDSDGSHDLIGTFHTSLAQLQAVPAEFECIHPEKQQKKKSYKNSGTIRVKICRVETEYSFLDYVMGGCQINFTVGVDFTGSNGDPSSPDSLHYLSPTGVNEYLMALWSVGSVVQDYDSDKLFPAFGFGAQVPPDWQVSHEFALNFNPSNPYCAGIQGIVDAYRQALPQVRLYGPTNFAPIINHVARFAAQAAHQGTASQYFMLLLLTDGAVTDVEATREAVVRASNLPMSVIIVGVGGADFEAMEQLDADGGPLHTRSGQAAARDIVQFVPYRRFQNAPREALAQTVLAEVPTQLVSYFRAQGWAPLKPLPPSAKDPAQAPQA
UniProt Q86VU5: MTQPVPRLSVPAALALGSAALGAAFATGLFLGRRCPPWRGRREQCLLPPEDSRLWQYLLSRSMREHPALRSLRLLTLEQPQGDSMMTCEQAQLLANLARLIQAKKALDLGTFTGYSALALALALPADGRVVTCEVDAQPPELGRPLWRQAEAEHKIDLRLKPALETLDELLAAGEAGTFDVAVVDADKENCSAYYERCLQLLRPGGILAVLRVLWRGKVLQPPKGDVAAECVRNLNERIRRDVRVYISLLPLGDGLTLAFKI
UniProt Q96MW5: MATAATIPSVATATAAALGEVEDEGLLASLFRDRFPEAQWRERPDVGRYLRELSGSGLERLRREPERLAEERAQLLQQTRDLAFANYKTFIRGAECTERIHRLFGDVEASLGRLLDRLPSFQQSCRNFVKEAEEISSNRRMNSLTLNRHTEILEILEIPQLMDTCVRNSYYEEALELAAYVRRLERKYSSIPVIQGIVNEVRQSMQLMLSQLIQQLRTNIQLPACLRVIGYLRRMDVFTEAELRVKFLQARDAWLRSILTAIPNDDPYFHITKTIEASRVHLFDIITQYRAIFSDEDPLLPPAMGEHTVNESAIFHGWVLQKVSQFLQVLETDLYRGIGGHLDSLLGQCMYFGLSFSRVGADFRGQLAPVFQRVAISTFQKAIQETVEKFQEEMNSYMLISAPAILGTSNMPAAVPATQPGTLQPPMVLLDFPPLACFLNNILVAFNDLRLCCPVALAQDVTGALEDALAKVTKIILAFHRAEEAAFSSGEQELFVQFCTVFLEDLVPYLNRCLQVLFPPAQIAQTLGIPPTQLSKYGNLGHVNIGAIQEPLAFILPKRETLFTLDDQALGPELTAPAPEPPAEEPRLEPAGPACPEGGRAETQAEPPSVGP
UniProt P83436: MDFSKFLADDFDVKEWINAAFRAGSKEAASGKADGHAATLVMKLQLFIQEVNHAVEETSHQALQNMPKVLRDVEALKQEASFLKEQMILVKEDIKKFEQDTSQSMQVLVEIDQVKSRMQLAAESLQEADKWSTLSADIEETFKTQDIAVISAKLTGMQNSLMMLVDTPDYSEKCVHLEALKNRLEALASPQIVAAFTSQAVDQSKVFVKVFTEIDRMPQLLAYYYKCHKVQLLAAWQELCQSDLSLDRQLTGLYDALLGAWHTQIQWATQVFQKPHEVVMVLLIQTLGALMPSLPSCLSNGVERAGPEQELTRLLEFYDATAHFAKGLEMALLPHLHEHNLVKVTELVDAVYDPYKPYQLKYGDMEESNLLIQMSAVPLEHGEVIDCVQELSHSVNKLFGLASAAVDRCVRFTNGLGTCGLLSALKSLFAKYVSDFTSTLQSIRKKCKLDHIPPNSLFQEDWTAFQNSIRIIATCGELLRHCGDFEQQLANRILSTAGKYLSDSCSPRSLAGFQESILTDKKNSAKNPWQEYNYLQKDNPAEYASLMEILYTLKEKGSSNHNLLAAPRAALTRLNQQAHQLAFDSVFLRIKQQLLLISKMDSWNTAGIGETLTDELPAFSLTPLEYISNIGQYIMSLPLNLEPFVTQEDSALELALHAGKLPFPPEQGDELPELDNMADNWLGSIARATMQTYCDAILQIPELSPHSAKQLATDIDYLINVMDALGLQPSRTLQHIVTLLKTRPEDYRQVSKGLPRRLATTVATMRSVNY
UniProt Q92600, whole entry, looked up: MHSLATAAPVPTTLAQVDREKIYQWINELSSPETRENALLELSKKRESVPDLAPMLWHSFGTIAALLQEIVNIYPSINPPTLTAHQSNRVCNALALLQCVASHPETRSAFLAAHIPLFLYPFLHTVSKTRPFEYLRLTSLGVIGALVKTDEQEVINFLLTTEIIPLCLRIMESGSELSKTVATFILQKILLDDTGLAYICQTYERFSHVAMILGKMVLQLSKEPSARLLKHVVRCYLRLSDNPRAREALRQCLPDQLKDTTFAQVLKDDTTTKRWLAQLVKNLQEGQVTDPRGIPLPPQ
UniProt Q92905, whole entry, looked up: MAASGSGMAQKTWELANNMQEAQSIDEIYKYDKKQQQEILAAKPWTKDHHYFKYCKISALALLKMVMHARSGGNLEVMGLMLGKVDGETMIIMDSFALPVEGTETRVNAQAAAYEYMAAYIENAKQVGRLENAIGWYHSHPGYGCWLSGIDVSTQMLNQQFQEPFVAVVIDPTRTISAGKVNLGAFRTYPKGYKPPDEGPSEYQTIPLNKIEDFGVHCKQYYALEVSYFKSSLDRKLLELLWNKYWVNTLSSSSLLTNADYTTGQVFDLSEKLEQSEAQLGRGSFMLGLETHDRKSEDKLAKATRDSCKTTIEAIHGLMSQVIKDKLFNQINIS
UniProt Q9Y2V7: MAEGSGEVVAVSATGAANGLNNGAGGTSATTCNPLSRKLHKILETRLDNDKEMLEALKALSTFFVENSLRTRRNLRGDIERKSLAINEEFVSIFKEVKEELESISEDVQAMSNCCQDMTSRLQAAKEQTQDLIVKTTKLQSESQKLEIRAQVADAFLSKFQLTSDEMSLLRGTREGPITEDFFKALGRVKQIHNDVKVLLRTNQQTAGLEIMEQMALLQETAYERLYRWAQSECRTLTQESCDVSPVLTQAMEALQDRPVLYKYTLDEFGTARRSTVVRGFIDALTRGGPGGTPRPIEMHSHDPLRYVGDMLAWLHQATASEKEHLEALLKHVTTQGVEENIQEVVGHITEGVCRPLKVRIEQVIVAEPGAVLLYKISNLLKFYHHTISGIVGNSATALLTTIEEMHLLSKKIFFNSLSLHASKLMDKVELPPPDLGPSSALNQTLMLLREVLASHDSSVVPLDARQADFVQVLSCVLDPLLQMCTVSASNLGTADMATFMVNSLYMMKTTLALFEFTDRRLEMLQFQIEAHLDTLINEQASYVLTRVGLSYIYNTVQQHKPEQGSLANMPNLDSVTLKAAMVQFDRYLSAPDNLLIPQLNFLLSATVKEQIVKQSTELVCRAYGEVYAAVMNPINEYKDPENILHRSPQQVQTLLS
UniProt P14406, whole entry, looked up: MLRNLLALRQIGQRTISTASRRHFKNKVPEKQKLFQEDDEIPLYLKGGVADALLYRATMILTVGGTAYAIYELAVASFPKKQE
UniProt Q9H9Q2: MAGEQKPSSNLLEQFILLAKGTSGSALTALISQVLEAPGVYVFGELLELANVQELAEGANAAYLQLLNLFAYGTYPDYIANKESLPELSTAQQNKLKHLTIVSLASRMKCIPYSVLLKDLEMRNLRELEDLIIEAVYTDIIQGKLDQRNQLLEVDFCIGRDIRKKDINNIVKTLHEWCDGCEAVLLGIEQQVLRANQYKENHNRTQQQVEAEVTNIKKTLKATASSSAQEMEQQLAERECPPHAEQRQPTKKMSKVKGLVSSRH
UniProt P21964: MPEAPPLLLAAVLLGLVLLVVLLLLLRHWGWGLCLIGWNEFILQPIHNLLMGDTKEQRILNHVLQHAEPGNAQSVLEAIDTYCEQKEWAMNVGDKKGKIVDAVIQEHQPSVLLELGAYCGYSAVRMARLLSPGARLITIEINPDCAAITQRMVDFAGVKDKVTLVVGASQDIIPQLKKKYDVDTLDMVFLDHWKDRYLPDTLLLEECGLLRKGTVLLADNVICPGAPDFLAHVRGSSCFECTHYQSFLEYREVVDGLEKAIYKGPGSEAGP

Experiments:
Experiment in all cases: log2 fold change, soluble protein after heating vs DMSO (PISA); higher = thermal stabilisation; K562 lysate, 10 uM; active = over 0.2 and 3.5 SD of the protein, either way, in both replicates (recomputed)
vemurafenib = compound: CCCS(=O)(=O)Nc1ccc(F)c(C(=O)c2c[nH]c3ncc(-c4ccc(Cl)cc4)cc23)c1F [vemurafenib]
Summary of the method: (§1)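 To prepare the extract, K562 pellets were dounce-homogenised in PBS pH 7.4 with 1 mM MgCl2, giving crude material at 1 mg/mL protein. This was treated with 10 μM compound for 30 min, then heated in aliquots for 3 min over 48°C-58°C before pooling and addition of NP-40 to 0.5% at 4°C. Centrifugation at 21,000xg for 90 min left soluble protein in the supernatant, which TMTpro 16plex LC-MS/MS quantified with equalised channel sums. Results are log-two fold changes in thermal stability compared with solvent controls, from duplicates.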

[1] = compound: CCCS(=O)(=O)Nc1ccc(F)c(C(=O)c2c[nH]c3ncc(Cl)cc23)c1F
Summary of the method: as §1

barasertib = compound: CCN(CCCOc1ccc2c(Nc3cc(CC(=O)Nc4cccc(F)c4)[nH]n3)ncnc2c1)CCOP(=O)(O)O [barasertib]
Summary of the method: as §1

[2] = compound: CC[C@@H]1C(=O)N(C)c2cnc(Nc3ccc(C(=O)NC4CCN(C)CC4)cc3OC)nc2N1C1CCCC1
Summary of the method: as §1

volasertib = compound: CC[C@@H]1C(=O)N(C)c2cnc(Nc3ccc(C(=O)N[C@H]4CC[C@H](N5CCN(CC6CC6)CC5)CC4)cc3OC)nc2N1C(C)C [volasertib]
Summary of the method: as §1

[3] = compound: CCn1c(C(=O)N(C2CC2)C2CC2)cc2c3c(ncn3C)c(Nc3cc(C)n(C)n3)nc21
Summary of the method: as §1

[4] = compound: CCn1cc(-c2ccnc3[nH]c(-c4cccc(CN(C)C)c4)cc23)c(-c2ccc(NC(=O)N(C)C)cc2)n1
Summary of the method: as §1

[5] = compound: CN1CCC(CNc2ccc3ncc(-c4cccc(OC(F)(F)F)c4)n3n2)CC1
Summary of the method: as §1

saracatinib = compound: CN1CCN(CCOc2cc(OC3CCOCC3)c3c(Nc4c(Cl)ccc5c4OCO5)ncnc3c2)CC1 [saracatinib]
Summary of the method: as §1

sotrastaurin = compound: CN1CCN(c2nc(C3=C(c4c[nH]c5ccccc45)C(=O)NC3=O)c3ccccc3n2)CC1 [sotrastaurin]
Summary of the method: as §1

alvocidib = compound: CN1CC[C@H](c2c(O)cc(O)c3c(=O)cc(-c4ccccc4Cl)oc23)[C@H](O)C1 [alvocidib]
Summary of the method: as §1

Tubastatin A = compound: CN1CCc2c(c3ccccc3n2Cc2ccc(C(=O)NO)cc2)C1 [Tubastatin A]
Summary of the method: as §1

[6] = compound: CNC(=O)C1=CC=CC=C1NC2=NC(=NC=C2Cl)NC3=C(C=C(C=C3)N4CCOCC4)OC
Summary of the method: as §1

defactinib = compound: CNC(=O)c1ccc(Nc2ncc(C(F)(F)F)c(NCc3nccnc3N(C)S(C)(=O)=O)n2)cc1 [defactinib]
Summary of the method: as §1

[7] = compound: CNc1nc(-c2ccc3c(N)n[nH]c3c2)cc(N2C[C@@H](C(=O)NC3CCCCC3)CC[C@H]2C)n1
Summary of the method: as §1

encorafenib = compound: COC(=O)N[C@@H](C)CNc1nccc(-c2cn(C(C)C)nc2-c2cc(Cl)cc(NS(C)(=O)=O)c2F)n1 [encorafenib]
Summary of the method: as §1

[8] = compound: COC(=O)[C@H](CCSC)NC(=O)C1=C(C=C(C=C1)NC[C@H](CS)N)C2=CC=CC=C2
Summary of the method: as §1

alisertib = compound: COc1cc(Nc2ncc3c(n2)-c2ccc(Cl)cc2C(c2c(F)cccc2OC)=NC3)ccc1C(=O)O [alisertib]
Summary of the method: as §1

[9] = compound: COc1cc2nc(-c3cc(F)ccc3O)nc(N[C@@H]3CNC[C@H]3C(C)(C)O)c2cc1OC
Summary of the method: as §1

gefitinib = compound: COc1cc2ncnc(Nc3ccc(F)c(Cl)c3)c2cc1OCCCN1CCOCC1 [gefitinib]
Summary of the method: as §1

Measured: log2 fold change

COX18 (UniProt Q8N8Q8)
inactive: vemurafenib 0.041 | [1] 0.05 | barasertib 0.018 | [2] 0.099 | volasertib -0.001 | [3] 0.008 | [4] 0.002 | [5] -0.046 | saracatinib -0.031 | sotrastaurin 0.038 | alvocidib 0.016 | Tubastatin A -0.028 | [6] 0.039 | defactinib 0.049 | [7] 0.039 | encorafenib -0.118 | [8] 0.002 | alisertib 0.032 | [9] -0.108 | gefitinib 0.064

CNTN4 (UniProt Q8IWV2)
inactive: vemurafenib 0.237 | [1] 0.12 | barasertib 0.03 | [2] 0.295 | volasertib 0.024 | [3] -0.326 | [4] -0.474 | [5] 0.128 | sotrastaurin -0.076 | alvocidib -0.148 | Tubastatin A 0.185 | [6] 0.021 | defactinib -0.104 | encorafenib -0.193 | [8] 0.124 | alisertib -0.074 | [9] 0.03 | gefitinib -0.022

COX5B (UniProt P10606)
inactive: vemurafenib -0.023 | [1] -0.053 | barasertib 0.133 | [2] 0.058 | volasertib 0.091 | [3] -0.023 | [4] 0.025 | [5] -0.096 | saracatinib 0.029 | sotrastaurin -0.032 | alvocidib 0.053 | Tubastatin A 0.075 | [6] 0.03 | defactinib 0.055 | [7] 0.031 | encorafenib 0.011 | [8] -0.031 | alisertib 0.045 | [9] 0.022 | gefitinib -0.159

COQ5 (UniProt Q5HYK3)
inactive: vemurafenib 0.091 | [1] 0.001 | barasertib 0.013 | [2] -0.03 | volasertib -0.036 | [3] 0.031 | [4] 0.03 | [5] 0.001 | saracatinib 0.063 | sotrastaurin 0.049 | alvocidib -0.027 | Tubastatin A 0.025 | [6] 0.02 | defactinib -0.059 | [7] 0.081 | encorafenib 0.062 | [8] -0.017 | alisertib -0.027 | [9] 0.007 | gefitinib 0.039

COPS8 (UniProt Q99627)
inactive: vemurafenib 0.01 | [1] 0.027 | barasertib 0.126 | [2] -0.025 | volasertib 0.051 | [3] 0.002 | [4] -0.049 | [5] -0.026 | saracatinib 0.01 | sotrastaurin 0.017 | alvocidib -0.006 | Tubastatin A 0.069 | [6] -0.005 | defactinib 0.03 | [7] 0.084 | encorafenib 0.019 | [8] 0.053 | alisertib 0.045 | [9] 0.002 | gefitinib -0.077

CPNE1 (UniProt Q99829)
inactive: vemurafenib -0.004 | [1] 0.016 | barasertib -0.028 | [2] 0.013 | volasertib -0.027 | [3] -0.012 | [4] -0.064 | [5] 0.044 | saracatinib -0.004 | sotrastaurin 0.019 | alvocidib -0.024 | Tubastatin A -0.004 | [6] 0.054 | defactinib -0.011 | [7] 0.026 | encorafenib 0.018 | [8] -0.019 | alisertib 0 | [9] -0.016 | gefitinib -0.009

COMTD1 (UniProt Q86VU5)
inactive: vemurafenib -0.033 | [1] -0.083 | barasertib -0.133 | [2] 0.002 | volasertib -0.059 | [3] -0.039 | saracatinib -0.064 | sotrastaurin 0.051 | Tubastatin A -0.158 | [6] 0.147 | defactinib -0.048 | [7] 0.014 | encorafenib 0.001 | [8] 0.257 | alisertib 0.069 | [9] -0.005 | gefitinib 0.125

COG8 (UniProt Q96MW5)
inactive: vemurafenib 0.037 | [1] -0.049 | barasertib -0.014 | [2] -0.063 | volasertib -0.083 | [3] 0.09 | [4] -0.089 | [5] -0.163 | saracatinib -0.017 | sotrastaurin 0.041 | alvocidib 0.112 | Tubastatin A -0.11 | [6] 0.011 | defactinib -0.068 | [7] -0.026 | encorafenib 0.044 | [8] -0.033 | alisertib 0.024 | [9] -0.003 | gefitinib -0.048

COG7 (UniProt P83436)
inactive: vemurafenib 0.003 | [1] 0.018 | barasertib 0.017 | [2] -0.054 | volasertib -0.076 | [3] -0.003 | [4] -0.209 | [5] -0.019 | saracatinib 0.05 | sotrastaurin 0.039 | alvocidib 0.019 | Tubastatin A -0.114 | [6] -0.02 | defactinib 0.056 | [7] -0.047 | encorafenib 0.028 | [8] 0.035 | alisertib 0.014 | [9] 0.012 | gefitinib 0.004

2 entries drawn at random from those above, as already listed:
COG8 (UniProt Q96MW5)
inactive: vemurafenib 0.037 | [1] -0.049 | barasertib -0.014 | [2] -0.063 | volasertib -0.083 | [3] 0.09 | [4] -0.089 | [5] -0.163 | saracatinib -0.017 | sotrastaurin 0.041 | alvocidib 0.112 | Tubastatin A -0.11 | [6] 0.011 | defactinib -0.068 | [7] -0.026 | encorafenib 0.044 | [8] -0.033 | alisertib 0.024 | [9] -0.003 | gefitinib -0.048

COQ5 (UniProt Q5HYK3)
inactive: vemurafenib 0.091 | [1] 0.001 | barasertib 0.013 | [2] -0.03 | volasertib -0.036 | [3] 0.031 | [4] 0.03 | [5] 0.001 | saracatinib 0.063 | sotrastaurin 0.049 | alvocidib -0.027 | Tubastatin A 0.025 | [6] 0.02 | defactinib -0.059 | [7] 0.081 | encorafenib 0.062 | [8] -0.017 | alisertib -0.027 | [9] 0.007 | gefitinib 0.039

(listing goes on)

CNOT6L (UniProt Q96LI5)
inactive: vemurafenib 0.035 | [1] -0.007 | barasertib 0.065 | [2] -0.006 | volasertib 0.006 | [3] 0.078 | [5] 0.107 | saracatinib 0.048 | sotrastaurin -0.019 | alvocidib -0.091 | Tubastatin A 0.022 | [6] 0.022 | defactinib 0.046 | [7] 0.013 | encorafenib 0.036 | [8] 0.066 | alisertib -0.005 | [9] 0.037 | gefitinib -0.033
active: [4] -0.422

CNOT9 (UniProt Q92600)
inactive: vemurafenib -0.003 | [1] -0.004 | barasertib 0.074 | [2] 0.012 | volasertib -0.011 | [3] 0.043 | [4] -0.055 | [5] 0.01 | saracatinib 0.016 | sotrastaurin -0.01 | alvocidib -0.02 | Tubastatin A -0.078 | [6] 0.007 | defactinib 0.007 | [7] -0.037 | encorafenib -0.002 | [8] 0 | alisertib 0.031 | [9] 0.016 | gefitinib -0.02

COPS5 (UniProt Q92905)
inactive: vemurafenib -0.014 | [1] -0.009 | barasertib 0.004 | [2] 0.034 | volasertib 0.01 | [3] -0.009 | [4] -0.075 | [5] 0.013 | saracatinib -0.001 | sotrastaurin -0.011 | alvocidib 0.02 | Tubastatin A 0.016 | [6] -0.011 | defactinib -0.032 | [7] 0.012 | encorafenib -0.002 | [8] -0.05 | alisertib -0.004 | [9] 0.008 | gefitinib 0.025

COG6 (UniProt Q9Y2V7)
inactive: vemurafenib 0.062 | [1] 0.013 | barasertib 0.072 | [2] -0.004 | volasertib -0.046 | [3] 0.015 | [4] -0.116 | [5] 0.017 | saracatinib 0.073 | sotrastaurin -0.017 | alvocidib 0.026 | Tubastatin A -0.062 | [6] 0.059 | defactinib -0.028 | [7] 0.059 | encorafenib -0.026 | [8] 0.034 | alisertib 0.016 | [9] -0.017 | gefitinib 0.006

COX7A2 (UniProt P14406)
inactive: vemurafenib 0.033 | [1] -0.057 | barasertib 0.148 | [2] 0.032 | volasertib 0.024 | [3] 0.07 | [4] -0.03 | [5] -0.069 | sotrastaurin -0.002 | alvocidib 0.045 | Tubastatin A 0.059 | [6] 0.008 | defactinib 0.058 | encorafenib -0.02 | [8] 0.026 | alisertib 0.052 | [9] 0.003 | gefitinib -0.076

COPS7B (UniProt Q9H9Q2)
inactive: vemurafenib 0.013 | [1] -0.01 | barasertib -0.044 | [2] 0.272 | volasertib 0.01 | [3] -0.002 | [4] 0.188 | [5] -0.041 | saracatinib -0.03 | sotrastaurin 0.07 | alvocidib -0.08 | Tubastatin A 0.004 | [6] -0.011 | defactinib -0.083 | [7] 0.02 | encorafenib -0.069 | [8] 0.098 | alisertib -0.06 | [9] 0.014 | gefitinib 0.041

COMT (UniProt P21964)
inactive: vemurafenib -0.052 | [1] 0.012 | barasertib 0.024 | [2] -0.101 | volasertib -0.056 | [3] 0.039 | [4] 0.026 | [5] 0.005 | saracatinib 0.008 | sotrastaurin 0.036 | alvocidib 0.012 | Tubastatin A -0.162 | [6] -0.016 | defactinib 0.016 | [7] -0.013 | encorafenib 0.028 | [8] 0.059 | alisertib 0.022 | [9] 0.025 | gefitinib 0.013
